# Assay results as given in the supplement of paper PMC8728848.
# This is one part of the list.
# Legend:
# Experiment in all cases: glycan array binding signal (z-score within array); higher = stronger binding
# Details in all cases: glycan notation: IUPAC condensed, linker removed
# [1] = target: Neu5Ac(a2-3)Gal(b1-3)GlcNAc(b1-6)GalNAc
# How it was run: (§1)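 Arrays were curated from the Consortium for Functional Glycomics database, 3228 in total, and kept only where the protein sequence was available. Binding is expressed as a within-array Z-score. This score was averaged across arrays of the same protein sequence at different concentrations or buffers and across linkers, and negative values can be read as non-binding.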
# [2] = target: Neu5Ac(a2-3)Gal(b1-3)GlcNAc6S
# How it was run: as §1
# [3] = target: Neu5Ac(a2-3)Gal(b1-3)[Fuc(a1-4)]GlcNAc
# How it was run: as §1
# [4] = target: Neu5Ac(a2-3)Gal(b1-3)[Fuc(a1-4)]GlcNAc(b1-3)Gal(b1-3)[Fuc(a1-4)]GlcNAc
# How it was run: as §1
# [5] = target: Neu5Ac(a2-3)Gal(b1-3)[Fuc(a1-4)]GlcNAc(b1-3)Gal(b1-4)[Fuc(a1-3)]GlcNAc
# How it was run: as §1
# [6] = target: Neu5Ac(a2-3)Gal(b1-3)[GlcNAc(b1-6)]GalNAc
# How it was run: as §1
# [7] = target: Neu5Ac(a2-3)Gal(b1-3)[Neu5Ac(a2-6)]GalNAc
# How it was run: as §1
# [8] = target: Neu5Ac(a2-3)Gal(b1-3)[Neu5Ac(a2-6)]GlcNAc(b1-3)[Fuc(a1-3)[Gal(b1-4)]GlcNAc(b1-6)]Gal(b1-4)Glc
# How it was run: as §1
# [9] = target: Neu5Ac(a2-3)Gal(b1-3)]Neu5Ac(a2-3)Gal(b1-4)]GlcNAc
# How it was run: as §1
# [10] = target: Neu5Ac(a2-3)Gal(b1-4)Glc
# How it was run: as §1
# [11] = target: Neu5Ac(a2-3)Gal(b1-4)GlcNAc
# How it was run: as §1
# [12] = target: Neu5Ac(a2-3)Gal(b1-4)GlcNAc(b1-2)Man
# How it was run: as §1
# [13] = target: Neu5Ac(a2-3)Gal(b1-4)GlcNAc(b1-2)Man(a1-3)[GlcNAc(b1-4)][Neu5Ac(a2-3)Gal(b1-4)GlcNAc(b1-2)Man(a1-6)]Man(b1-4)GlcNAc(b1-4)GlcNAc
# How it was run: as §1
# [14] = target: Neu5Ac(a2-3)Gal(b1-4)GlcNAc(b1-2)Man(a1-3)[Neu5Ac(a2-3)Gal(b1-4)GlcNAc(b1-2)Man(a1-6)]Man(b1-4)GlcNAc(b1-4)GlcNAc
# How it was run: as §1
# [15] = target: Neu5Ac(a2-3)Gal(b1-4)GlcNAc(b1-2)Man(a1-3)[Neu5Ac(a2-3)Gal(b1-4)GlcNAc(b1-2)Man(a1-6)]Man(b1-4)GlcNAc(b1-4)[Fuc(a1-6)]GlcNAc
# How it was run: as §1
# [16] = target: Neu5Ac(a2-3)Gal(b1-4)GlcNAc(b1-2)Man(a1-3)[Neu5Ac(a2-6)Gal(b1-4)GlcNAc(b1-2)Man(a1-6)]Man(b1-4)GlcNAc(b1-4)GlcNAc
# How it was run: as §1
# [17] = target: Neu5Ac(a2-3)Gal(b1-4)GlcNAc(b1-2)[Neu5Ac(a2-3)Gal(b1-4)GlcNAc(b1-4)]Man(a1-3)[GlcNAc(b1-4)][Neu5Ac(a2-3)Gal(b1-4)GlcNAc(b1-2)[Neu5Ac(a2-3)Gal(b1-4)GlcNAc(b1-6)]Man(a1-6)]Man(b1-4)GlcNAc(b1-4)GlcNAc
# How it was run: as §1
# [18] = target: Neu5Ac(a2-3)Gal(b1-4)GlcNAc(b1-2)[Neu5Ac(a2-3)Gal(b1-4)GlcNAc(b1-4)]Man(a1-3)[GlcNAc(b1-4)][Neu5Ac(a2-3)Gal(b1-4)GlcNAc(b1-4)Man(a1-6)]Man(b1-4)GlcNAc(b1-4)GlcNAc
# How it was run: as §1
# [19] = target: Neu5Ac(a2-3)Gal(b1-4)GlcNAc(b1-2)[Neu5Ac(a2-3)Gal(b1-4)GlcNAc(b1-6)]Man(a1-6)[Neu5Ac(a2-3)Gal(b1-4)GlcNAc(b1-2)Man(a1-3)][GlcNAc(b1-4)]Man(b1-4)GlcNAc(b1-4)GlcNAc
# How it was run: as §1
# [20] = target: Neu5Ac(a2-3)Gal(b1-4)GlcNAc(b1-3)Gal
# How it was run: as §1
# [21] = target: Neu5Ac(a2-3)Gal(b1-4)GlcNAc(b1-3)Gal(b1-3)GlcNAc
# How it was run: as §1
# [22] = target: Neu5Ac(a2-3)Gal(b1-4)GlcNAc(b1-3)Gal(b1-4)GlcNAc
# How it was run: as §1
# [23] = target: Neu5Ac(a2-3)Gal(b1-4)GlcNAc(b1-3)Gal(b1-4)GlcNAc(b1-2)Man(a1-3)[Neu5Ac(a2-3)Gal(b1-4)GlcNAc(b1-3)Gal(b1-4)GlcNAc(b1-2)Man(a1-6)]Man(b1-4)GlcNAc(b1-4)GlcNAc
# How it was run: as §1
# [24] = target: Neu5Ac(a2-3)Gal(b1-4)GlcNAc(b1-3)Gal(b1-4)GlcNAc(b1-3)Gal(b1-4)GlcNAc
# How it was run: as §1
# [25] = target: Neu5Ac(a2-3)Gal(b1-4)GlcNAc(b1-3)Gal(b1-4)GlcNAc(b1-3)Gal(b1-4)GlcNAc(b1-2)Man(a1-3)[Neu5Ac(a2-3)Gal(b1-4)GlcNAc(b1-3)Gal(b1-4)GlcNAc(b1-3)Gal(b1-4)GlcNAc(b1-2)Man(a1-6)]GalNAc
# How it was run: as §1
# [26] = target: Neu5Ac(a2-3)Gal(b1-4)GlcNAc(b1-3)Gal(b1-4)GlcNAc(b1-3)GalNAc
# How it was run: as §1
# [27] = target: Neu5Ac(a2-3)Gal(b1-4)GlcNAc(b1-3)Gal(b1-4)GlcNAc(b1-3)[Neu5Ac(a2-3)Gal(b1-4)GlcNAc(b1-3)Gal(b1-4)GlcNAc(b1-6)]GalNAc
# How it was run: as §1
# [28] = target: Neu5Ac(a2-3)Gal(b1-4)GlcNAc(b1-3)Gal(b1-4)GlcNAc(b1-6)[Gal(b1-3)]GalNAc
# How it was run: as §1
# [29] = target: Neu5Ac(a2-3)Gal(b1-4)GlcNAc(b1-3)Gal(b1-4)[Fuc(a1-3)]GlcNAc
# How it was run: as §1
# [30] = target: Neu5Ac(a2-3)Gal(b1-4)GlcNAc(b1-3)GalNAc
# How it was run: as §1
binder,measurement,setting,value
"CcfD (Bacteroides fragilis), Q5L9G4 (protein) MKKQNSIYTLLIALLCFVSSCDYLGVSDQLAGGLQNTEQVFDNVSYTKRWYANVFAGIPDYSGINSVNVGAFKNPWTGMCDELVVGYGNSSKYNNSDRNAANMGFHRYGDCYKYIRQANIFLQKAHPIMTTGTQGDQLLEDELTQMKANVRFMRAFYHYLLFEQYGPIILVKDKIYNATEDQDVPRNTVDEVIEYIDSELTAVASELTQEPIFEDKDYRAWPTKGVALAVRAKLWLYAASPLLNGGYREALSVTNPDGTRLFPDYDAGKWEKALAACKDFIDYAEAGRYELYKEYKDDNGAVIDPDKSVYNLFQKYTHEIIWATANNDWGGMNGDAFDRRIAPRCEKNGLGSTGVTQELVDAFYMKDGFPVSATAYLPQSTLYQEEGYGTYKDQNDNFSKKYTNVTVSNRYLNREPRFYNTVFFNGRQWPVSCNQVLFYNGGNSGVQEGQATLTGYMLFKRFNRSVSLTNPGVASQFRPSIIFRLADFYLMYAEAANEVNPNDARVLKYLNLVRERAGLPDIETLNPAIRGNQELQRAAIQRERQIELATEGQRYFDVRRWMIADKNGEGRQNGYVHGMNVRGESNDKEDFNRIVEASQIVFNRKMYLYPMPDSEMRKTKNLVQNPGW",glycan array binding signal (z-score),[1],-0.64
same,glycan array binding signal (z-score),[2],0.588
same,glycan array binding signal (z-score),[3],-0.082
same,glycan array binding signal (z-score),[4],-0.68
same,glycan array binding signal (z-score),[5],-0.076
same,glycan array binding signal (z-score),[6],0.22
same,glycan array binding signal (z-score),[7],-0.049
same,glycan array binding signal (z-score),[8],-0.522
same,glycan array binding signal (z-score),[9],-0.87
same,glycan array binding signal (z-score),[10],-0.624
same,glycan array binding signal (z-score),[11],-0.414
same,glycan array binding signal (z-score),[12],-0.338
same,glycan array binding signal (z-score),[13],-0.667
same,glycan array binding signal (z-score),[14],-0.601
same,glycan array binding signal (z-score),[15],0.548
same,glycan array binding signal (z-score),[16],-0.805
same,glycan array binding signal (z-score),[17],-0.437
same,glycan array binding signal (z-score),[18],-0.752
same,glycan array binding signal (z-score),[19],-0.069
same,glycan array binding signal (z-score),[20],-0.785
same,glycan array binding signal (z-score),[21],0.975
same,glycan array binding signal (z-score),[22],-0.502
same,glycan array binding signal (z-score),[23],-0.634
same,glycan array binding signal (z-score),[24],-0.154
same,glycan array binding signal (z-score),[25],0.391
same,glycan array binding signal (z-score),[26],-0.43
same,glycan array binding signal (z-score),[27],-0.706
same,glycan array binding signal (z-score),[28],-0.942
same,glycan array binding signal (z-score),[29],-0.509
same,glycan array binding signal (z-score),[30],-0.089

# Two entries from above, set out differently:
binder	measurement	setting	value
CcfD (Bacteroides fragilis), Q5L9G4 (protein) MKKQNSIYTLLIALLCFVSSCDYLGVSDQLAGGLQNTEQVFDNVSYTKRWYANVFAGIPDYSGINSVNVGAFKNPWTGMCDELVVGYGNSSKYNNSDRNAANMGFHRYGDCYKYIRQANIFLQKAHPIMTTGTQGDQLLEDELTQMKANVRFMRAFYHYLLFEQYGPIILVKDKIYNATEDQDVPRNTVDEVIEYIDSELTAVASELTQEPIFEDKDYRAWPTKGVALAVRAKLWLYAASPLLNGGYREALSVTNPDGTRLFPDYDAGKWEKALAACKDFIDYAEAGRYELYKEYKDDNGAVIDPDKSVYNLFQKYTHEIIWATANNDWGGMNGDAFDRRIAPRCEKNGLGSTGVTQELVDAFYMKDGFPVSATAYLPQSTLYQEEGYGTYKDQNDNFSKKYTNVTVSNRYLNREPRFYNTVFFNGRQWPVSCNQVLFYNGGNSGVQEGQATLTGYMLFKRFNRSVSLTNPGVASQFRPSIIFRLADFYLMYAEAANEVNPNDARVLKYLNLVRERAGLPDIETLNPAIRGNQELQRAAIQRERQIELATEGQRYFDVRRWMIADKNGEGRQNGYVHGMNVRGESNDKEDFNRIVEASQIVFNRKMYLYPMPDSEMRKTKNLVQNPGW	glycan array binding signal (z-score)	[18]	-0.752
same	glycan array binding signal (z-score)	[20]	-0.785
